Data on six molecules can be found in publication PMC12176286.

Chains of the proteins cited; added tags and fusions are not shown. Residues count along the entry.
UniProt P29323, residues 19-1055: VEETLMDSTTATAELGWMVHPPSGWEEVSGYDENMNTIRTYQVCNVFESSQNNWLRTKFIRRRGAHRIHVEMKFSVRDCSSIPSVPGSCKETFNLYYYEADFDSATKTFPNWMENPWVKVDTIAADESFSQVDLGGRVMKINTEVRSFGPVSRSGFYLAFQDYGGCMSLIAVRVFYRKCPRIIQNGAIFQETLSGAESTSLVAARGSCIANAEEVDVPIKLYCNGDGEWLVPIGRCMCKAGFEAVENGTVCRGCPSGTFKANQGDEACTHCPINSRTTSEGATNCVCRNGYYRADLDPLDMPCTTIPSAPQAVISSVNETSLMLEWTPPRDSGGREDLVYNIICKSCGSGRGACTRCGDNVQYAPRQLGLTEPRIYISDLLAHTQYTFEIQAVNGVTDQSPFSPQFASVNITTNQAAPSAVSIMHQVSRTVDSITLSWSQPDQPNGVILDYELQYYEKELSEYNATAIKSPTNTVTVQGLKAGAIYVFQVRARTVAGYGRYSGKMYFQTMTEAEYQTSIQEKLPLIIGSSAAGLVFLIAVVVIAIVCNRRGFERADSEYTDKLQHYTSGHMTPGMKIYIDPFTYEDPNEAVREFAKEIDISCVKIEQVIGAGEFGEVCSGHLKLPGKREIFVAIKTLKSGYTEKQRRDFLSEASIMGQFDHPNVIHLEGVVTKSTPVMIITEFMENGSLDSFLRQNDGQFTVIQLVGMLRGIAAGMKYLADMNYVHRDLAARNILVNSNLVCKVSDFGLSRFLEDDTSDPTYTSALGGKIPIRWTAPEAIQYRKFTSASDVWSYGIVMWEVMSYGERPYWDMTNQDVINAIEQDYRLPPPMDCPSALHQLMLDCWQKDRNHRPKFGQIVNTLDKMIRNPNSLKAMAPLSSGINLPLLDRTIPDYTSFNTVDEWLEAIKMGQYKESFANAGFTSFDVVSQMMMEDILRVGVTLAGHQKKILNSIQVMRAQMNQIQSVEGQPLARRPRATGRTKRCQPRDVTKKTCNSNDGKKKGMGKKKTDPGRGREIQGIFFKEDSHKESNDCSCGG
UniProt P54756, residues 25-1037: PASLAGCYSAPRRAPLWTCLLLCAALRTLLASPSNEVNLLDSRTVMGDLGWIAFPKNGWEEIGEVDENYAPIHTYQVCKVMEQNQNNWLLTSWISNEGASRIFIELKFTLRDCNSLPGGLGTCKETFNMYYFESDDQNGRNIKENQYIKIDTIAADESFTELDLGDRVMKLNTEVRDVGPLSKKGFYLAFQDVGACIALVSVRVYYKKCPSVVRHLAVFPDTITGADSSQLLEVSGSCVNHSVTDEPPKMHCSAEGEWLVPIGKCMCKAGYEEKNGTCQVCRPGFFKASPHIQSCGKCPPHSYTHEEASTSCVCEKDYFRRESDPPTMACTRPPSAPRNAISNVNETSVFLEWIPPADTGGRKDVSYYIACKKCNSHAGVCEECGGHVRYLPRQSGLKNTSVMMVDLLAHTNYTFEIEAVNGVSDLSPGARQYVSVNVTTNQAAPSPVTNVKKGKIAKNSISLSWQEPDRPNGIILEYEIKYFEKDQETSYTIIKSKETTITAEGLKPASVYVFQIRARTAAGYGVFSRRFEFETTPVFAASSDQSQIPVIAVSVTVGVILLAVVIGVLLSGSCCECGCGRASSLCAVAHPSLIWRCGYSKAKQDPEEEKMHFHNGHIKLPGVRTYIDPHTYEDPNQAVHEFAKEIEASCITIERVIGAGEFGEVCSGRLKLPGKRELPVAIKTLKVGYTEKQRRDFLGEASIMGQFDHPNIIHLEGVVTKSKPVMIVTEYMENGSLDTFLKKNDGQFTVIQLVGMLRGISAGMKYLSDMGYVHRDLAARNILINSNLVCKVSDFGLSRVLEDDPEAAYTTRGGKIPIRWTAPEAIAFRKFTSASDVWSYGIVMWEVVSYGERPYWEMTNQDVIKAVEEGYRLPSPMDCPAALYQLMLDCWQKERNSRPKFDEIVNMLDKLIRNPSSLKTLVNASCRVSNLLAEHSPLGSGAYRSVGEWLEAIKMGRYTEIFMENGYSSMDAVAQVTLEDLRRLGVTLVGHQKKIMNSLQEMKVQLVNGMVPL

Results are given in words; binding and its absence hold for the method and conditions named. In cells and extracts the contact can be indirect. Some results given as binding are weak or reduced against the parent protein; the word gives no strength. For some assays here: Tags and fused reporters may be left off the sequences shown.

For assay [1], the target named is WT EPHB2 (reconstituted in EPHB2-knockout THP-1 cells) (UniProt P29323). Briefly: co-IP; EPHB2-knockout THP-1 cells reconstituted with WT EPHB2; stimulated with Curdlan (100 µg/mL) or α-Mannan (100 µg/mL) for the indicated times; immunoprecipitated with an anti-Flag antibody; Western blot.
Assay [2] addresses EPHA5-WT-Flag (reconstituted in EPHA5 knockdown THP-1 cells) (UniProt P54756). Briefly: co-IP; EPHA5 knockdown (EPHA5-g2) THP-1 cells reconstituted with EPHA5-WT-Flag; stimulated with Curdlan (100 µg/ml) or α-Mannan (100 µg/mL) for the indicated times; immunoprecipitated with an anti-Flag antibody; EPHA5 dimers and monomers on the Western blot. A general note: A western blot detects proteins with antibodies after separation by electrophoresis.

Assay [3] concerns the target EPHA5-Flag (UniProt P54756). Briefly: co-IP; HEK293T cells cotransfected with EPHA5-Flag, EPHB2-HA and Dectin1-HA together; immunoprecipitated with an anti-Flag antibody; Western blot.
Assay [4] deals with T1, Dectin1-HA (UniProt Q9BXN2).
T1 sequence: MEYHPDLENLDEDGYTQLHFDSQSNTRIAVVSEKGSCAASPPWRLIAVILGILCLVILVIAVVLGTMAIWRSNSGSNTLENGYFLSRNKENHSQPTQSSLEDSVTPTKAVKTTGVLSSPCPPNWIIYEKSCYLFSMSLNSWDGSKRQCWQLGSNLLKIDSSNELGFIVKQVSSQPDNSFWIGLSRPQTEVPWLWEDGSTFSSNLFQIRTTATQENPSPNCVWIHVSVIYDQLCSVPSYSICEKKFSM
Briefly: co-IP; HEK293T cells co-transfected with two tagged constructs; lysis in 0.5% Triton X-100, 20 mM HEPES pH 7.4, 150 mM NaCl; lysates with anti-HA or anti-Flag antibody overnight at 4°C, protein A/G Sepharose beads 2 hours, four washes; Western blot.

In assay [5] the target is EPHB2-HA (UniProt P29323). The description is as above.
Assay [6] deals with EPHA5-Flag (UniProt P54756). The assay is described as above.
Assay [7] has as its target EPHA5-HA (UniProt P54756). Described as above.

Take “EPHA5 (in EPHB2-KO THP-1 cells reconstituted with EPHB2) (from UniProt P54756 25-1037) (receptor)”: the binding entry in assay [1] is “binds”.

Take “EPHA5-WT-Flag (reconstituted in EPHA5 knockdown THP-1 cells) (from UniProt P54756 25-1037) (receptor)”: in assay [2], the binding result was “binds”.

Take “EPHB2-HA (from UniProt P29323 19-1055) (receptor)”: the binding result in assay [3] was “binds”.

For “EPHA5-Flag (from UniProt P54756 25-1037) (receptor)”, the binding result in assay [4], in assay [5] and in assay [6] was “binds” each time.

B1: Dectin2-Flag (receptor, UniProt Q6EIG7 1-209)
chain: MMQEQQPQSTEKRGWLSLRLWSVAGISIALLSACFIVSCVVTYHFTYGETGKRLSELHSYHSSLTCFSEGTKVPAWGCCPASWKSFGSSCYFISSEEKVWSKSEQNCVEMGAHLVVFNTEAEQNFIVQQLNESFSYFLGLSDPQGNNNWQWIDKTPYEKNVRFWHLGEPNHSAEQCASIVFWKPTGWGWNDVICETRRNSICEMNKIYL
B1: in assay [7], the binding result is given as “binds”.

B2: Dectin1-HA (receptor, UniProt Q9BXN2 1-247)
chain: T1 sequence
Consider B2, for which the binding result in assay [3] is “binds”.
